{"source": "patent EP0705591A2", "about": "“Cyclic amidocarboxy surfactants, synthesis and use thereof” (STEPAN COMPANY, priority 1989, dated 1991)", "experiment": "Fabric softening evaluation in domestic laundry machine", "settings": "rating from 1 (harshest) to 3 (softest); about 0.2 percent active softener/weight of towel"}
{"compound": "CCCCCCCCCCCCCCCCCCNC(=O)c1ccccc1C(=O)O.OCCN(CCO)CCO", "note": "[Triethanolammonium N-octadecylphthalamate]", "values": [{"measurement": "AVERAGE, RINSE CYCLE", "value": 2.1}, {"measurement": "AVERAGE, WASH CYCLE", "value": 2}]}
{"compound": "sodium N-tallowphthalamate", "values": [{"measurement": "AVERAGE, RINSE CYCLE", "value": 2.2}, {"measurement": "AVERAGE, WASH CYCLE", "value": 2}]}
